Values from PubChem BioAssay AID1224826 (NIAID, 2016)

- Test: 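Genes that change LPS-induced Tnf promoter activity in mouse macrophages when knocked down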 (primary screen)
- Cell system: RAW264.7 G9 macrophages from mouse bearing reporters for p65 (GFP) and the Tnf promoter (mCherry)
- Reagent: siRNA pool against mouse genes, 100 nM
- Time to read-out: 16 h of LPS stimulation, after 2 days of siRNA transfection
- Challenge: bacterial lipopolysaccharide (Salmonella minnesota R595), 10 ng/ml
- Detection: 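Imaged Tnf reporter mCherry in nuclei, minus background, normalised per plate to the median and expressed as robust z-scores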
- Scale: Tnf reporter robust z-score: higher = stronger Tnf promoter reporter signal after LPS; Tnf reporter intensity: higher = stronger Tnf promoter reporter signal
- Active means: 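Called active when robust z-score is at most -1.3, matching the median of the Tlr4 knock-down control, or over 3; control wells and wells with under 50 cells never active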
- Meaning of the calls: active = Tnf reporter clearly lowered or raised; inactive = no clear change in Tnf reporter
Shown is an unselected part of about 17,000 reagents tested. About 1,110 of all reagents (6.6%) were called active. 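Active means lowered or raised reporter signal; replicate intensities are raw and not normalised per plate.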 A reagent listed more than once was tested more than once; the source does not tell the runs apart.

target,Tnf reporter robust z-score,fewer than 50 cells in well,"Tnf reporter intensity, replicate 1","Tnf reporter intensity, replicate 2",call
9930038B18Rik (GeneID 319503),-1.02,enough cells in well,119,122,inactive
Dsg1c (GeneID 211924),1.02,enough cells in well,218,176,inactive
Map3k4 (GeneID 26407),-1.37,enough cells in well,107,94.9,active
Slc4a9 (GeneID 240215),,fewer than 50 cells per well; well left out of calls,131,75.8,inactive
Acvr1 (GeneID 11477),-1.23,enough cells in well,120,88.2,inactive
Ttpa (GeneID 50500),-0.01,enough cells in well,223,237,inactive
Metap2 (GeneID 56307),0.82,enough cells in well,286,150,inactive
Ccl7 (GeneID 20306),1.1,enough cells in well,347,276,inactive
Agpat3 (GeneID 28169),-0.15,enough cells in well,165,208,inactive
Nfe2l3 (GeneID 18025),-0.44,enough cells in well,239,128,inactive
Cyfip1 (GeneID 20430),1.04,enough cells in well,273,213,inactive
Phox2a (GeneID 11859),-1.71,enough cells in well,102,83,active
Cdk17 (GeneID 237459),1.02,enough cells in well,256,127,inactive
Muc15 (GeneID 269328),-0.18,enough cells in well,228,110,inactive
Samd13 (GeneID 75015),,fewer than 50 cells per well; well left out of calls,308,65.6,inactive
Atp8b3 (GeneID 67331),-0.14,enough cells in well,189,132,inactive
Pgap6 (GeneID 60455),,fewer than 50 cells per well; well left out of calls,96.7,105,inactive
Gtf3c6 (GeneID 67371),0.9,enough cells in well,243,117,inactive
Plin1 (GeneID 103968),,fewer than 50 cells per well; well left out of calls,59.4,63.3,inactive
Pptc7 (GeneID 320717),-0.06,enough cells in well,142,169,inactive
Ttc22 (GeneID 230576),,fewer than 50 cells per well; well left out of calls,119,47.4,inactive
Nr6a1 (GeneID 14536),-0.91,enough cells in well,232,75.5,inactive
Nmur1 (GeneID 14767),-0.3,enough cells in well,192,266,inactive
Zfp111 (GeneID 56707),0.87,enough cells in well,167,154,inactive
Insl5 (GeneID 23919),-0.09,enough cells in well,262,124,inactive
Mbd6 (GeneID 110962),-0.07,enough cells in well,201,151,inactive
Pthlh (GeneID 19227),-0.28,enough cells in well,176,215,inactive
Mllt11 (GeneID 56772),0.94,enough cells in well,228,216,inactive

9 entries from above, set out differently:
target	Tnf reporter robust z-score	fewer than 50 cells in well	Tnf reporter intensity, replicate 1	Tnf reporter intensity, replicate 2	call
Ttpa (GeneID 50500)	-0.01	enough cells in well	223	237	inactive
Metap2 (GeneID 56307)	0.82	enough cells in well	286	150	inactive
Ccl7 (GeneID 20306)	1.1	enough cells in well	347	276	inactive
Agpat3 (GeneID 28169)	-0.15	enough cells in well	165	208	inactive
Nfe2l3 (GeneID 18025)	-0.44	enough cells in well	239	128	inactive
Cyfip1 (GeneID 20430)	1.04	enough cells in well	273	213	inactive
Phox2a (GeneID 11859)	-1.71	enough cells in well	102	83	active
Cdk17 (GeneID 237459)	1.02	enough cells in well	256	127	inactive
Muc15 (GeneID 269328)	-0.18	enough cells in well	228	110	inactive

Next records follow.
target,Tnf reporter robust z-score,fewer than 50 cells in well,"Tnf reporter intensity, replicate 1","Tnf reporter intensity, replicate 2",call
Or9s15 (GeneID 258483),-1.21,enough cells in well,108,70.7,inactive
Atad3a (GeneID 108888),-1.18,enough cells in well,108,94.3,inactive
Pnliprp1 (GeneID 18946),0.12,enough cells in well,291,169,inactive
Adrb2 (GeneID 11555),-0.96,enough cells in well,166,77.9,inactive
Adrb2 (GeneID 11555),-0.23,enough cells in well,173,317,inactive
Mtfmt (GeneID 69606),,fewer than 50 cells per well; well left out of calls,184,73.6,inactive
Htr2a (GeneID 15558),-0.07,enough cells in well,216,279,inactive
Tchp (GeneID 77832),-0.23,enough cells in well,165,134,inactive
Apmap (GeneID 71881),3.24,enough cells in well,453,133,active
Nlgn1 (GeneID 192167),-0.41,enough cells in well,159,131,inactive
Rpusd2 (GeneID 271842),,fewer than 50 cells per well; well left out of calls,139,29.5,inactive
Mapk8 (GeneID 26419),-0.61,enough cells in well,167,117,inactive
Vmn1r73 (GeneID 171237),,fewer than 50 cells per well; well left out of calls,55.2,32.4,inactive
Grhl1 (GeneID 195733),-1.75,enough cells in well,45.8,40.4,active
Or5m3 (GeneID 258572),2.24,enough cells in well,324,268,inactive
Rpa1 (GeneID 68275),2.39,enough cells in well,236,179,inactive
Sf3b4 (GeneID 107701),,fewer than 50 cells per well; well left out of calls,13.3,31.9,inactive
Frmd4a (GeneID 209630),-0.28,enough cells in well,207,69.4,inactive
Fgd3 (GeneID 30938),-0.01,enough cells in well,231,146,inactive
Ppp4r3b (GeneID 104570),-0.21,enough cells in well,146,165,inactive
Crnkl1 (GeneID 66877),,fewer than 50 cells per well; well left out of calls,121,67.6,inactive
Artn (GeneID 11876),0.39,enough cells in well,220,160,inactive
Cask (GeneID 12361),-1.01,enough cells in well,134,163,inactive
Tubg1 (GeneID 103733),-0.91,enough cells in well,169,147,inactive
Thbs2 (GeneID 21826),-1.33,enough cells in well,150,59.8,active
Ss18 (GeneID 268996),0,enough cells in well,328,173,inactive
Nedd4l (GeneID 83814),0.71,enough cells in well,352,234,inactive
Ube2e3 (GeneID 22193),0.41,enough cells in well,280,240,inactive
Cfhr1 (GeneID 50702),-0.45,enough cells in well,130,162,inactive
Tpra1 (GeneID 24100),-0.18,enough cells in well,199,235,inactive
